Source: the supplement of paper PMC10849652
This is one part of the list.

Chains of the proteins cited; added tags and fusions are not shown. Lines headed by an entry give the natural chain unless they say otherwise; changes in a name come on top.
UniProt Q7L523, whole entry, looked up: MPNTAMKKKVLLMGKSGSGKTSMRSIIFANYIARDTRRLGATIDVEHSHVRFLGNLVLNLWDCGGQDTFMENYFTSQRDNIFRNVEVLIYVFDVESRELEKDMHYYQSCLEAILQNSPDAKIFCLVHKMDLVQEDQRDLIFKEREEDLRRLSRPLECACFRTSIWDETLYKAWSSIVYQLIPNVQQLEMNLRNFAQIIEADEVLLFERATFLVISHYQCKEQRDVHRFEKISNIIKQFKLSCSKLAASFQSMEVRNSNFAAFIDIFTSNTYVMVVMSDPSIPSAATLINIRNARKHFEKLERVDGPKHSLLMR
UniProt P23443: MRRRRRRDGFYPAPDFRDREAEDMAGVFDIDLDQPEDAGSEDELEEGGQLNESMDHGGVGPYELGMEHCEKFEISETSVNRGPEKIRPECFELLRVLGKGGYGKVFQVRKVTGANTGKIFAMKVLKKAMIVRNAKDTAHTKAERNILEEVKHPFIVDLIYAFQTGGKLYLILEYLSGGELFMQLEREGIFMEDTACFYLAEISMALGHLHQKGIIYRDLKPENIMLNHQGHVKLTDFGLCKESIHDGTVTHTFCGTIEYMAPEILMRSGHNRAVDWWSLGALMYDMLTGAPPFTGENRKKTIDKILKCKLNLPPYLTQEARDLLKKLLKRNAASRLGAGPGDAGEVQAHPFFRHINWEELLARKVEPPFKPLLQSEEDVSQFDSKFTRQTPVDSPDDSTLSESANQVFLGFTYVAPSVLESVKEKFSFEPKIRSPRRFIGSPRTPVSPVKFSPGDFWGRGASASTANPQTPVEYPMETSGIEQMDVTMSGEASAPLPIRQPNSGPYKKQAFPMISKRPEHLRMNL
UniProt P04844: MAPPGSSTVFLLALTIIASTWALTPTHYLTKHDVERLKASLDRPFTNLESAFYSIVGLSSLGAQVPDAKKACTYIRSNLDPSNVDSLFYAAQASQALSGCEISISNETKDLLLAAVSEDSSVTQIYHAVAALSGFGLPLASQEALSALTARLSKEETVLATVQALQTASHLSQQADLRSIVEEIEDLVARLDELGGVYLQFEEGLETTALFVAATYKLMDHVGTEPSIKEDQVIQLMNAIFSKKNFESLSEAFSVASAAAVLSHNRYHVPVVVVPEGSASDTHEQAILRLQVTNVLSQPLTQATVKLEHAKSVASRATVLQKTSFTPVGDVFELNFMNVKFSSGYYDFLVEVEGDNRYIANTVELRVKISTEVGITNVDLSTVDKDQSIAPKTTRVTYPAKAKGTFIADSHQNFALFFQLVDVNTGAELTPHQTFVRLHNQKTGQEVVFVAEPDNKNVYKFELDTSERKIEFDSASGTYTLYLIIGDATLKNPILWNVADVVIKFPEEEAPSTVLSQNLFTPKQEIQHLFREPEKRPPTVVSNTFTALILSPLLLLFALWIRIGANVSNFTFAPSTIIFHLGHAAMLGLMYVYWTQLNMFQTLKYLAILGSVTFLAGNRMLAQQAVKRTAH

Compound: COC1=CC=C(C=C1)CN2C=CC3=C2C=C(C=C3)C(=O)NO
Experiment: log2 fold change, soluble protein after heating vs DMSO (PISA); higher = thermal stabilisation; K562 cells, 10 uM, 30 min; active = over 0.2 and 3.5 SD of the protein, either way, in both replicates (recomputed)
How it was run: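 Thermal stability values are relative to control samples and come from duplicates. They are expressed as log2 fold changes. For measurement, K562 cells (2×10^6 cells/mL) received 10 μM compound for 30 min, and aliquots were heated for 3 min over 48°C-58°C, pooled, and extracted at 4°C in PBS with 0.5% NP-40. Soluble protein, the supernatant after 21,000xg for 90 min, was quantified by TMTpro 16plex LC-MS/MS with equalised channel sums.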

log2 fold change, inactive:
RPS17 (UniProt P08708) -0.036
RPS13 (UniProt P62277) -0.132
RRAGA (UniProt Q7L523) 0.318
RPL37 (UniProt P61927) -0.043
RPS14 (UniProt P62263) 0.034
RPL36 (UniProt Q9Y3U8) -0.061
RPS29 (UniProt P62273) 0.025
RPS6KB1 (UniProt P23443) 0.013
RPN2 (UniProt P04844) 0
RPL15 (UniProt P61313) -0.16
RPL5 (UniProt P46777) -0.031
RPS15 (UniProt P62841) 0.086
RPL24 (UniProt P83731) -0.041
RPS24 isoform 4 (UniProt P62847) -0.075
RPS5 (UniProt P46782) 0.004
RPS2 (UniProt P15880) -0.049
RPS26 (UniProt P62854) -0.013

2 entries picked at random from the list so far, as already listed:
log2 fold change, inactive:
RPL36 (UniProt Q9Y3U8) -0.061
RPN2 (UniProt P04844) 0
